Laboratory results taken from PubChem BioAssay AID662 (National Center for Advancing Translational Sciences (NCATS), 2007).
Some of the results follow. These are further read-outs of the screen, such as a control signal, another cell line or another target. No call is given for them. The list favours compounds with an active or inconclusive main result. Potencies come from curve fits of mixed quality, noted in brackets.

test: Cell signaling CRE-BLA (Fsk stim); settings: CHO CRE-bla reporter (cAMP response element driving beta-lactamase), forskolin EC10, beta-lactamase ratio; measured here: 460 nm blue channel
Procedure, shortened: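 Cells were plated overnight at 37 °C, exposed to compound titrations plus EC10 NKH 477 for 3 h, then given CCF4 dye for 2 h at room temperature. Blue/green (460/530 nm) ratio was converted to %Activity and AC50 values calculated.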

Row | Compound | AC50
1 | Cc1ccccc1S(=O)(=O)NC1OC(=O)C(Cl)=C1Cl (stereo not drawn) | 0.0794 µM [falling, partial curve, poor fit]
2 | Cc1cccc2cc(C#N)c(NCCCn3ccnc3)nc12 | 12.6 µM [rising, single point]
3 | CN1CCN(C(=O)CN(Cc2ccc(Cl)cc2)S(C)(=O)=O)CC1 | 5.01 µM [falling, full curve, poor fit]
4 | O=C(CSc1nc2c(cnn2-c2ccccc2)c(=O)[nH]1)N1CCOCC1 | 0.00398 µM [falling, full curve, poor fit]
5 | CCCCOC(=O)C1=C(C)Nc2ncnn2C1c1ccc(OCC)c(OC)c1 (stereo not drawn) | 25.1 µM [rising, single point]
6 | CCC(C)(C)n1nnnc1C(c1ccc2ncccc2c1)N1CCN2CCCC2C1 (stereo not drawn) | 0.794 µM [falling, full curve]
7 | Clc1cccc(CSc2nnc([C@@H]3CCCN3)o2)c1 | 0.00316 µM [falling, full curve, poor fit]
8 | COc1cccc(-n2nnc3c(=O)n(Cc4c(F)cccc4Cl)cnc32)c1 | 1 µM [rising, partial curve]
9 | O=C1C2CCCN2C(c2ccc(Cl)cc2)N1c1nccs1 (stereo not drawn) | 5.01 µM [falling, single point]
10 | NCCCCNCCCN | 0.01 µM [falling, full curve, poor fit]
11 | CC(=O)Nc1sc(C)c(C)c1C(=O)OC1CCOC1=O (stereo not drawn) | 3.16 µM [rising, partial curve]
12 | CC(C)c1ccccc1N1CC(C(=O)O)CC1=O (stereo not drawn) | 0.00398 µM [falling, full curve]
13 | Cc1ccccc1-c1ccc2ncnc(N3CCOCC3)c2c1 | 2.51 µM [falling, single point]
14 | CCC1SC(=NC(=O)c2ccc(Cl)c(Cl)c2)NC1=O (stereo not drawn) | 1 µM [rising, partial curve]
15 | O=c1c2[nH]c3ccc(F)cc3c2ncn1CCCn1ccnc1 | 6.31 µM [rising, single point]
16 | Cn1c(=O)c2c(nc(N3CCOCC3)n2CC(=O)C23CC4CC(CC(C4)C2)C3)n(C)c1=O | 25.1 µM [rising, single point]
17 | C=C1CC[C@@H](O)C/C1=C/C=C1\CCC[C@]2(C)[C@@H]1CC[C@H]2[C@@H](C)/C=C\[C@@H](C)C(C)C | 12.6 µM [falling, single point]
18 | O=C(OC[C@@H](O)CO)c1ccccc1Nc1ccnc2cc(Cl)ccc12 | 10 µM [rising, partial curve]
19 | CS(=O)(=O)Nc1cccc(-c2nc(N3CCOCC3)c3ccccc3n2)c1 | 3.16 µM [rising, full curve]
20 | CCN(CC)Cc1csc(C(N)=O)c1 | 0.0158 µM [falling, full curve]
21 | COCc1nn2c(N)c(C#N)cnc2c1-c1ccccc1 | 25.1 µM [rising, single point]
22 | Cc1cc2cc(C)c3nnc(SCC(=O)NCc4ccco4)n3c2cc1C | 20 µM [rising, single point]
23 | Nc1ccccc1OCCOCCOc1ccccc1N | 0.00398 µM [falling, full curve, poor fit]

Row | Compound | AC50
24 | COc1cccc(CN2CCN(C(=O)c3cccc(F)c3)CC2)c1 | 0.00316 µM [falling, full curve]
25 | CCOC(=O)c1c(C)n(C)c2ccc(OCC(N)=O)cc12 | 10 µM [rising, partial curve]
26 | CS(=O)(=O)N1CCCC(C(=O)NCc2ccc(F)cc2Cl)C1 (stereo not drawn) | 3.98 µM [rising, partial curve]
27 | N#C/C(=C\c1cccs1)Sc1nc2ccccc2s1 | 12.6 µM [rising, partial curve]
28 | CC[C@@H]1CN2CCc3cc(OC)c(OC)cc3[C@H]2C[C@@H]1C[C@@H]1NCCc2cc(OC)c(OC)cc21 | 12.6 µM [falling, full curve]
29 | C=CCNC(=O)c1ccccc1NC(=O)c1ccccc1 | 0.00316 µM [falling, full curve, poor fit]
30 | COc1cc(-c2nnc3sc(C4CCCCC4)nn23)cc(OC)c1OC | 1.26 µM [rising, partial curve]
31 | COc1cccc(Nc2ncnc3c2cnn3C)c1 | 10 µM [rising, partial curve]
32 | Cc1c(O)ccc2c3c(c(=O)oc12)CCCC3 | 10 µM [rising, single point]
33 | O=C(c1ccco1)N1CCC2(CCN(Cc3cc(C(F)(F)F)cc(C(F)(F)F)c3)CC2)CC1 | 15.8 µM [rising, partial curve, poor fit]
34 | CC(=O)N1CCN(c2ccc(NC(=O)c3ccc(C(C)(C)C)cc3)cc2)CC1 | 25.1 µM [falling, single point]
35 | CCc1ccc(N2CCCn3c2nc2c3c(=O)n(CCN3CCOCC3)c(=O)n2C)cc1 | 0.00316 µM [falling, full curve, poor fit]
36 | N#CCCn1c(=O)c(-c2ccc(Cl)cc2)nc2cnc(Nc3ccccc3)nc21 | 2 µM [rising, full curve]
37 | Cc1nc(NCCCn2ccnc2)c2oc3ccccc3c2n1 | 12.6 µM [rising, partial curve]
38 | O=C(O)C1(C(=O)O)CCN(S(=O)(=O)c2ccccc2)CC1 | 3.98 µM [rising, partial curve, poor fit]
39 | COc1cccc(-c2nc(NCc3cccs3)c3ccccc3n2)c1 | 7.94 µM [falling, single point]
40 | Cc1ccccc1Cn1nc(C)c(NC(=O)c2cc3nc(-c4ccco4)cc(C(F)(F)F)n3n2)c1C | 2.51 µM [rising, full curve]
41 | COc1ccc(Oc2ncc3nc(C)c(=O)n(Cc4cccs4)c3n2)cc1 | 10 µM [rising, partial curve]
42 | CCCn1c(SCC(=O)Nc2cc(C)on2)nc2c1c(=O)n(C)c(=O)n2C | 12.6 µM [falling, single point]
43 | COc1ccc(NC(=O)Nc2nnc(N3CCC(C)CC3)s2)cc1OC | 3.98 µM [rising, single point]
44 | Cc1cc(O)cc(O)c1-c1onc(C(F)(F)F)c1-c1cscn1 | 15.8 µM [falling, partial curve]
45 | COc1cccc(C(=O)CSc2nnc(-c3cc(OC)c(OC)c(OC)c3)o2)c1 | 7.94 µM [rising, partial curve]
46 | CCOC(=O)c1c(C)n(C)c2ccc(OCC(O)Cn3nc(C)c(Br)c3C)cc12 (stereo not drawn) | 15.8 µM [falling, single point]

Copied from the list.
Value for CCC(C)(C)n1nnnc1C(c1ccc2ncccc2c1)N1CCN2CCCC2C1 (stereo not drawn) under AC50: 0.794 µM [falling, full curve]
Value for CC(=O)Nc1sc(C)c(C)c1C(=O)OC1CCOC1=O (stereo not drawn) under AC50: 3.16 µM [rising, partial curve]
Value for COc1cccc(-n2nnc3c(=O)n(Cc4c(F)cccc4Cl)cnc32)c1 under AC50: 1 µM [rising, partial curve]
Value for Cn1c(=O)c2c(nc(N3CCOCC3)n2CC(=O)C23CC4CC(CC(C4)C2)C3)n(C)c1=O under AC50: 25.1 µM [rising, single point]

Continuation.

Row | Compound | AC50
47 | c1ccc(C(c2nnnn2Cc2cccs2)N2CCN(C3CCCC3)CC2)cc1 (stereo not drawn) | 0.01 µM [falling, full curve, poor fit]
48 | O=C(Nc1cccc(-c2cn3cccnc3n2)c1)c1ccco1 | 0.01 µM [falling, full curve]
49 | COc1ncc2nc(-c3ccccc3)c(=O)n(Cc3cccs3)c2n1 | 12.6 µM [rising, partial curve]
50 | CCC/C=C(\CCC)C(NS(=O)(=O)c1ccc(C(F)(F)F)cc1)c1ccc(C(=O)OC)cc1 (stereo not drawn) | 2.51 µM [rising, full curve]
51 | Oc1c(C(c2cccs2)N2CCC3(CC2)OCCO3)sc2ncnn12 (stereo not drawn) | 12.6 µM [rising, partial curve]
52 | CC(=O)Nc1nc(=S)n(-c2ccccc2)[nH]1 | 0.316 µM [rising, partial curve]
53 | COc1ccc2cc(CCNC(=O)CC(C)(C)C)c(=O)[nH]c2c1 | 3.16 µM [falling, single point]
54 | COCCn1c(-c2ccco2)nc2nc3ccccc3nc21 | 10 µM [rising, partial curve]
55 | Cc1ccc(NC(=O)CSc2nccc(=O)[nH]2)c(S(=O)(=O)N2CCOCC2)c1 | 3.16 µM [rising, single point]
56 | O=C(Nc1nnc(N2CCCCCC2)s1)c1cc(-c2ccc(Br)cc2)on1 | 3.98 µM [rising, single point]
57 | CC(C)C(=O)Nc1ccccc1N1CCN(S(C)(=O)=O)CC1 | 12.6 µM [rising, partial curve]
58 | Cc1[nH]c2ccccc2c1C(=O)COC(=O)C1CCC(=O)N1 (stereo not drawn) | 5.01 µM [falling, single point]
59 | CC1CCCC(C)N1CCCNC(=O)c1cc2c(=O)n(C)c3ccccc3c2n1C (stereo not drawn) | 12.6 µM [rising, partial curve]
60 | Cc1ccccc1-c1nc(NC2CC2)c2ccccc2n1 | 1.26 µM [rising, full curve, poor fit]
61 | COc1cccc(-c2csc3nnc(SCC(=O)NCc4cccs4)n23)c1 | 25.1 µM [rising, single point]
62 | CCOC(=O)CS(=O)(=O)c1nc(-c2ccccc2)cc(C(F)(F)F)n1 | 12.6 µM [falling, partial curve]
63 | c1ccc(-c2cn3c4c(sc3n2)CCCC4)cc1 | 3.16 µM [rising, single point]
64 | O=C(NC1CCCCC1)c1ccc(S(=O)(=O)NCc2ccco2)cc1 | 0.794 µM [falling, full curve]
65 | O=C(Nc1cccc(F)c1)c1cc(S(=O)(=O)N2CCC(C(=O)O)CC2)ccc1F | 10 µM [rising, partial curve]
66 | CC1CCN(C(=O)C2c3ccccc3C(=O)N3CCc4ccccc4C23)CC1 (stereo not drawn) | 0.0631 µM [falling, partial curve]
67 | CCOC(=O)c1cc2n(c1C)-c1ccccc1C2=O | 15.8 µM [rising, partial curve]
68 | CC(C)[C@@H](CC(=O)N[C@@H]1CCCC[C@H]1C(=O)N[C@H](CC(=O)N[C@@H](CCC(=O)O)CC(=O)O)Cc1ccccc1)NC(=O)C[C@H](CO)NC(=O)[C@@H]1CCCC[C@H]1N | 6.31 µM [falling, partial curve, poor fit]
